Laboratory results from article PMC9810662.
Construct, isoform or probe ends are uncertain for at least one entry.

System: SREBP-bHLH (Ganoderma lingzhi)
Test: EMSA
Conditions: Lightshift Chemiluminescent EMSA Kit (Thermo 20148) per manufacturer; 0.6 ug SREBP-bHLH; 200x unlabelled competitor; pH and temperature not stated; recombinant protein; protein details: His-tag (pTriEx4); label: 3' biotin

Binding result, binds:
ACGAGGTGTGAGCGAGGAGTGGGGAACTGC (double strand) [g4309pro]
TGGGGCAGCCTGGACAGCGAAAAGCATGGATGGGA (double strand) [g3941pro]
AGGGACACATGAGAAGGAGACGATTGAGACGGGAA (double strand) [g4280pro]
TTCACCCCGTTCGCCCCGTTCGCCCCGTTCGCCCCATTCACCCCGTTC (double strand) [g1208pro]
TCTCCGCTTCTCTTCTTCCTCTGAACCTT (double strand) [g4989pro]
AGTGATAGGAGGAGGAGAGACTGGGGGACGGGGGTGCGAA (double strand) [g3847pro]
CACATCCCGCCCTCCTCTTCGTCCACGCCAGC (double strand) [g1941pro]
GCTTGCTATTTTCGCCCTCTTCACCATCGACTT (double strand) [g5041pro]
CTGGCAATCTTCTGGCATCTCTGATTCTGA (double strand) [g6347pro]
ATCCGCGAGAGCAGAGAGGGCGGAGGACGGGGTGGTG (double strand) [g805pro]
